Experimental data taken from article PMC12355554, “Development of novel mitochondrial pyruvate carrier inhibitors for breast cancer treatment” (The Journal of Biological Chemistry, 2025).

System: 4T1 cells
Experiment: Epifluorescent microscopy of cellular localization with MitoTracker Red
Format: cell-based, murine
Conditions: compound fluorescence, GFP filter

Row | Compound | cellular localization (overlay with MTR)
1 | CN(Cc1ccccc1)c1ccc2cc(C(=O)O)c(=O)oc2c1 [C3, 7-(benzyl(methyl)amino)-2-oxo-2H-chromene-3-carboxylic acid] | substantial accumulation in the mitochondria
2 | CN(Cc1ccc(F)cc1)c1ccc2cc(C(=O)O)c(=O)oc2c1 [C4, 7-((4-fluorobenzyl)(methyl)amino)-2-oxo-2H-chromene-3-carboxylic acid] | substantial accumulation in the mitochondria
